Reference: publication PMC4783080
No constants are given. Whether binding was seen depends on the method and setting. In cells and extracts the contact can be indirect. A yes stands for co-enrichment or nearness to the bait. Other partners may have been found. For some of these results: Where a sequence is shown, tags or fusion partners need not be part of it.

Amino acid sequences for entries named in this document (tags omitted). A change or cut given only in a name is not applied to a line headed by its entry.
UniProt A5KCP8: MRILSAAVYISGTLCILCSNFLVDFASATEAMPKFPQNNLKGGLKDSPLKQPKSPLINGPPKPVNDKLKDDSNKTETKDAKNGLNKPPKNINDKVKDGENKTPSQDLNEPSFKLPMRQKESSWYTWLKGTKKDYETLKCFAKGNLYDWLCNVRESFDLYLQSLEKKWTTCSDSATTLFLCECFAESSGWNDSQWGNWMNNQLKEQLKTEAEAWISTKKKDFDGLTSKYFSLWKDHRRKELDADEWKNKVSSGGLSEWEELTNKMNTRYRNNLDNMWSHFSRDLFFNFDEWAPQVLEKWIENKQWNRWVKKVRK
UniProt Q8IFM9: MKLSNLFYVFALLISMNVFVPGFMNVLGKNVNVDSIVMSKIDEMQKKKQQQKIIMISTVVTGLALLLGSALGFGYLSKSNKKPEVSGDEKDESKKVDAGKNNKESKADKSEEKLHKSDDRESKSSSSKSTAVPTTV
UniProt Q8IHN4: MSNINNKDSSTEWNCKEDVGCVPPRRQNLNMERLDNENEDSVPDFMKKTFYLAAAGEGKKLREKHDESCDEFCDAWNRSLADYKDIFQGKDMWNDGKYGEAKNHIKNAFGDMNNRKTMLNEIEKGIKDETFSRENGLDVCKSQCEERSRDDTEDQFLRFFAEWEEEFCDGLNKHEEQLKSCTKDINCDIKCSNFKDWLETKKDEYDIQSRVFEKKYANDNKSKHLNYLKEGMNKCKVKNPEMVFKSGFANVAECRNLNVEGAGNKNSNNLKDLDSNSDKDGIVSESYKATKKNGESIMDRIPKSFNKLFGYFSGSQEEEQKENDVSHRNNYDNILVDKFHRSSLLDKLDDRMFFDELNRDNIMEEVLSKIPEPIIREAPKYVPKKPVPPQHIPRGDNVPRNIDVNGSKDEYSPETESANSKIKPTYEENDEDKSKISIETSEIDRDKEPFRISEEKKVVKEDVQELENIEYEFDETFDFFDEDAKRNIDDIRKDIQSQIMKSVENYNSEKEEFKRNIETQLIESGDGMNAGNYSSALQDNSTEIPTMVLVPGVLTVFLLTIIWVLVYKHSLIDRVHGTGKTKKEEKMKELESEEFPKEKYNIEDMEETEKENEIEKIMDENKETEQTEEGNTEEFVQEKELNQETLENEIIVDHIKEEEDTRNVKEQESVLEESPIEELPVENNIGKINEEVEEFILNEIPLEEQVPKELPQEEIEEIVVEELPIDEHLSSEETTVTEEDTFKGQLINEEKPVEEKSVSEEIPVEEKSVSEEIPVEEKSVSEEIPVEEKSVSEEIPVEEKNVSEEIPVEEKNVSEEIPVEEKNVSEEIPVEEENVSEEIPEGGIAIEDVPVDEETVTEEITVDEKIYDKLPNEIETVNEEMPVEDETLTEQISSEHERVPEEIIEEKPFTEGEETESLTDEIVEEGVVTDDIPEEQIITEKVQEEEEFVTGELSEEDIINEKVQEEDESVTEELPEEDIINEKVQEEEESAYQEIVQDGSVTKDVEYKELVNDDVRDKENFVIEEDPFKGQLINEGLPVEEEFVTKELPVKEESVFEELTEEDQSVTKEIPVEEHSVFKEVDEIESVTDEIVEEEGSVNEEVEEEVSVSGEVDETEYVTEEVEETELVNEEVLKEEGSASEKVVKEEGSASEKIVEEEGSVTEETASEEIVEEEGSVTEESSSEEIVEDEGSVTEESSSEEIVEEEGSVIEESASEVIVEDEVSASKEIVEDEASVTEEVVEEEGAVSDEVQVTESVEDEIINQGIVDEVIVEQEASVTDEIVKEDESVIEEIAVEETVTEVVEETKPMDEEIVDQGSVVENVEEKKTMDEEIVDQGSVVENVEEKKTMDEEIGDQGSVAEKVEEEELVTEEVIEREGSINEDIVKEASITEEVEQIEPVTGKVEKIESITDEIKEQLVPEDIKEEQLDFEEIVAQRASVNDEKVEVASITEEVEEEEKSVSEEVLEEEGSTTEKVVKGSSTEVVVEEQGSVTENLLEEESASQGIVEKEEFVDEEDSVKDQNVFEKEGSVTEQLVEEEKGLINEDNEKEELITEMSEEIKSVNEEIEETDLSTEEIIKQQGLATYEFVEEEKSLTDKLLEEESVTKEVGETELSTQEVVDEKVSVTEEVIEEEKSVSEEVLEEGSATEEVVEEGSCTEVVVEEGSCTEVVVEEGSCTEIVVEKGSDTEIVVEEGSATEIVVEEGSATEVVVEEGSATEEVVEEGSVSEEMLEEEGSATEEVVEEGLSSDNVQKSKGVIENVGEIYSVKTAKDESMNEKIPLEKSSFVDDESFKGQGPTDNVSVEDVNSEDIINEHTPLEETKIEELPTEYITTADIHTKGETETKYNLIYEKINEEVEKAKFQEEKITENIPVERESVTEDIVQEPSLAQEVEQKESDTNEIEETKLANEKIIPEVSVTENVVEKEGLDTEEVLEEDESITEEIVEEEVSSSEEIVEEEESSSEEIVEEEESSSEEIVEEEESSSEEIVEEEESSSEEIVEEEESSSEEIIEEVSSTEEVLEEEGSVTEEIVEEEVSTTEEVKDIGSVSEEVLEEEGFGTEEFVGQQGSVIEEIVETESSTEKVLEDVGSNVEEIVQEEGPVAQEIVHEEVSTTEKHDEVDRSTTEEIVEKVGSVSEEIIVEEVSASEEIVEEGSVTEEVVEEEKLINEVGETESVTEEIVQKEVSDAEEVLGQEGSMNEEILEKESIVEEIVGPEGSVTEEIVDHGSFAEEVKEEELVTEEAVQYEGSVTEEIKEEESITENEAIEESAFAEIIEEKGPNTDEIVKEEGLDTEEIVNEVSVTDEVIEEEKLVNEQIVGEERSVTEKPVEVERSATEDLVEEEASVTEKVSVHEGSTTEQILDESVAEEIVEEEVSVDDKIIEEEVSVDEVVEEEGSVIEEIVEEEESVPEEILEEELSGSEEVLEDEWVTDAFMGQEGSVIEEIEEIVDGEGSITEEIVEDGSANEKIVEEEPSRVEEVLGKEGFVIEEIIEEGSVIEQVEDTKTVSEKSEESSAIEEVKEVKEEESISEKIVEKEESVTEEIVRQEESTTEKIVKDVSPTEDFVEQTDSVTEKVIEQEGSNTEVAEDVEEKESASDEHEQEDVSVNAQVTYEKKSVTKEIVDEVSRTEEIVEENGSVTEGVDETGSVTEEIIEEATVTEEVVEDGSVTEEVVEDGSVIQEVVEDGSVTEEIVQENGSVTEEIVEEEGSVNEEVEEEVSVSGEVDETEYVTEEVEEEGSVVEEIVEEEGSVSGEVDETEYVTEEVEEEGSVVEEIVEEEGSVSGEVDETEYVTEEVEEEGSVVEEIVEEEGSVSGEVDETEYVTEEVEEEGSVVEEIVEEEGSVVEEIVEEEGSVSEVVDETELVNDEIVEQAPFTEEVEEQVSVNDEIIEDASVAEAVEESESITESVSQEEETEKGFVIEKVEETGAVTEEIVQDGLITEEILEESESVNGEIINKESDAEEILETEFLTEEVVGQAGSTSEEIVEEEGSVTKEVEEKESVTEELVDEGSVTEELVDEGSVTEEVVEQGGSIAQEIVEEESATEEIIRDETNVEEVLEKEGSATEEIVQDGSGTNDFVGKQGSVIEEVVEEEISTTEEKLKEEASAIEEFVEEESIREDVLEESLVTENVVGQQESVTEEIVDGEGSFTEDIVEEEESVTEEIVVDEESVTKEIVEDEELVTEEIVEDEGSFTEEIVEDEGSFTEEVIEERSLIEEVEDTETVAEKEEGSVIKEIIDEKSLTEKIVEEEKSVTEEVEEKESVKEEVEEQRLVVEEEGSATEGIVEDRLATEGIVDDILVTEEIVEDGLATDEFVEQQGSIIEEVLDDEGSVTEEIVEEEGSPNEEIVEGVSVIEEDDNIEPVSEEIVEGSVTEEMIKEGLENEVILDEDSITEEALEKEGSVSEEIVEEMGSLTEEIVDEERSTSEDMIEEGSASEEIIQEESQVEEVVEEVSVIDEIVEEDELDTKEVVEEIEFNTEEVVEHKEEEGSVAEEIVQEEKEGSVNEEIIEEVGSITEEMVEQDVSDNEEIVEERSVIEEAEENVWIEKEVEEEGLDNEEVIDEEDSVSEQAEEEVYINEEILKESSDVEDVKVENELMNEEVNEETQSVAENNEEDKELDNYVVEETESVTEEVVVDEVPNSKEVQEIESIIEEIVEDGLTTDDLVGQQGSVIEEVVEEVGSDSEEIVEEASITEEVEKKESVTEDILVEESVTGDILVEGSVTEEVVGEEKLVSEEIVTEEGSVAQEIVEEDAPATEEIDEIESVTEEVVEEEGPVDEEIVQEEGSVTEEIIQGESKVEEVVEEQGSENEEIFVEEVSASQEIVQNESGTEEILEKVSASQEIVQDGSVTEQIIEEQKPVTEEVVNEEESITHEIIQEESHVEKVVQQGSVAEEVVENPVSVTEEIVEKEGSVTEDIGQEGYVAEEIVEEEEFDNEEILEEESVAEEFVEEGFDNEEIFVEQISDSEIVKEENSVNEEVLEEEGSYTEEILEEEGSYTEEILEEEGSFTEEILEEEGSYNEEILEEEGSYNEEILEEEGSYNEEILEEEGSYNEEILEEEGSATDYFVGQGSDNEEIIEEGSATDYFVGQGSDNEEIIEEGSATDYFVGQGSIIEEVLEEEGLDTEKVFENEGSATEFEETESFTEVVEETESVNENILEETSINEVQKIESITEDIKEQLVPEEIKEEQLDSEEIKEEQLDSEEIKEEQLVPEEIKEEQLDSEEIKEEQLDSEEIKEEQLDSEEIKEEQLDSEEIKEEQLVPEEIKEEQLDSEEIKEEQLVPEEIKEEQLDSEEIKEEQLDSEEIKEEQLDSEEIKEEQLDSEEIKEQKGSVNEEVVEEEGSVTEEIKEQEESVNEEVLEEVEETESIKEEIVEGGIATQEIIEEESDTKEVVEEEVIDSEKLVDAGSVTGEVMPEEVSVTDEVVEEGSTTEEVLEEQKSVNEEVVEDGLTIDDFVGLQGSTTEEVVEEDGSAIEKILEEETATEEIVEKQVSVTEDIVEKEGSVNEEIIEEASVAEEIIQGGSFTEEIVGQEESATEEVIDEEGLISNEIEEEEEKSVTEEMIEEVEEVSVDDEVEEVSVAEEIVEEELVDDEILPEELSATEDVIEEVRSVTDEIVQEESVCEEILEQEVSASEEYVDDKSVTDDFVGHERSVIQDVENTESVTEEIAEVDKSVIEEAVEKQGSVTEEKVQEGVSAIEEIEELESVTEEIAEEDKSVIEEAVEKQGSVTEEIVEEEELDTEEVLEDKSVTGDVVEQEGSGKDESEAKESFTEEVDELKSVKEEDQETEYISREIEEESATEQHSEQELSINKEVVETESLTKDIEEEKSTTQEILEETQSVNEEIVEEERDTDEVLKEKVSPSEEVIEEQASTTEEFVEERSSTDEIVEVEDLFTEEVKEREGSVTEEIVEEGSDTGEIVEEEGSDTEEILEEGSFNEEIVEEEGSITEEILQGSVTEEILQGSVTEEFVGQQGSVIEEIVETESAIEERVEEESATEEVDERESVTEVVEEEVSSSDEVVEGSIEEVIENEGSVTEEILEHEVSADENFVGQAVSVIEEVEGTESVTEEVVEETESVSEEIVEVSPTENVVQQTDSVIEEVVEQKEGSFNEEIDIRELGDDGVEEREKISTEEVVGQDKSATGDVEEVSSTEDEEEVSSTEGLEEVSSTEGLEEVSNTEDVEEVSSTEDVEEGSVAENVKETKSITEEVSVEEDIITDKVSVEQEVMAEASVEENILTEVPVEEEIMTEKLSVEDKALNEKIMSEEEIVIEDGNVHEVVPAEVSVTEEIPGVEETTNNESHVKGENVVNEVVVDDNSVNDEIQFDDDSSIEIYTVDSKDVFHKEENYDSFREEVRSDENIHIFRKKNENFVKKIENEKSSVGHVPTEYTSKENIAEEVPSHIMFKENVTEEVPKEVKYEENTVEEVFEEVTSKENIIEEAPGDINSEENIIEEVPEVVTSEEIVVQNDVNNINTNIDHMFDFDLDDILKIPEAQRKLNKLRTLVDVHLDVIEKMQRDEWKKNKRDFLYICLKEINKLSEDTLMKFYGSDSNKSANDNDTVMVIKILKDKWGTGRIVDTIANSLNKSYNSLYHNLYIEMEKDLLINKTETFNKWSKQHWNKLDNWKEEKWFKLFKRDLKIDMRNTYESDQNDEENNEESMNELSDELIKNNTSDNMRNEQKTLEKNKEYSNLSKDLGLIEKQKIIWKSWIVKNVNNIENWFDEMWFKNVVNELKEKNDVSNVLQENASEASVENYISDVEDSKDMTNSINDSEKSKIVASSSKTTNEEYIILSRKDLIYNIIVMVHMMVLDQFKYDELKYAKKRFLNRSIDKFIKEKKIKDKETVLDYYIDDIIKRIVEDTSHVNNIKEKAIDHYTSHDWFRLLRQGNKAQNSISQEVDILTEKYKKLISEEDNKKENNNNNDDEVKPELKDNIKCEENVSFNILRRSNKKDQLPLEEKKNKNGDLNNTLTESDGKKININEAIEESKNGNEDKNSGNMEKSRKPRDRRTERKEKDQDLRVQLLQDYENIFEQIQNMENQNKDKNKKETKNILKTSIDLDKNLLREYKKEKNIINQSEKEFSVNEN

B1: CLAG9 (protein, UniProt Q8I2G2 1-1340)
chain: MIIWFIQPTIFYIIFILARNIQCTYKGDNINEIKSILDNDELYNSLSNLENLLLQTLEQDELKIPIMKGDLDKYLNMSNFKILNELNADGAEKPYIIPTSNCSANDIVKYEHTLKTQITLEYKPEISDMLKRKNIVVRTLKIIKFMQTPMSAYKNTNNIKQSLLEMNKLFTNKEKKLNEHTINALRLRDRIFNTNNLTHRSIKKGISTYMPIDTKSDIIDYDDLLFTNHPSIELMENLDKLANYYHIGIFNMIGSHYIAVGHFITLKLALKNYKKYFEIGSLKYLNWQSILKFNQSDRFKVLDLICDESSWYEGQMKRREQYLKNNIFSTSEECSVLEFLIHHMNKYQMELYSKMHKLSLNVQIYLENKHLKEKFLQFMCRSRKECNIYESDRFKQEQEKGIEFHDNNNYKFSQENDPVSKVVDPFNLFTNYFYFIKYYSVFNSDHIIYMHLLNFVGVLNGNNNAYVSSLYLPGYYNAIQLSYKDQVGLKELYQNLVKCVEKCYIRNRKNRSFSHRIASIFRHKKFDSSKCSICEGTLLYINDQSQDKMSMAQKFYIFVTKILKVNNISSFITNMNIYEDYSNYLMHDLNWYTFLFLFRMTTYKDIPNYSISNAMYLNIKDEDDTKRTMVTFQWMPSTIKRMHNYRIRKYVSIYLLEELEKLIDNKLIEKLKKCITFLIHLNAFLQLDFFSYLNETPANLQHPFPISMMIEARFKDWFIQYLTGFFFINYDDANTRYNMPENMKRGTFIPPKYSKWNIHLKRFIDEAFLMYFNQKHALTLFKYHNPYNISNKIMLMRDTFELYTKNYDQLIFGADIMLLRKTFSCTPMSTKVWDRVKYYLHNIIGNPINFYKHGLIYAYTLNKAMLKEVVNDFFVIYKMNKDLFSETSFLQTVYLLFKKIQGTYFSHRRNDDVSMNNIFMFNVEKNYSKMSQADREKEIHESMASRFFAKNLFTVFQMMFVIQISNDVDKLDRIYGKADMLRLSVHDEPFLRFAYAYYGSMYDKLTNVFFPMNIKKPTIQLKYGKTFIMANLYYLCSVLFSMYNLNNLGLLCEYQAIGSANFHSYKKMSQFIDKKFIPLVFYTLKARTEGIIGKEWYKMVFNDFDGKSMANTWPYFGYYMGGNMLYRNILYFPNHLPEELRKQTKGVELQQPEYEPSVHSIDWQVGYAISHGLSLSFFTFGMMKAYAYFENVIFFLRNSIRIFDRFYSILENYVCMYIKRLFNKLTVDKLLKAMSRAYTSTKKEGAYEEAMVSRVRNKENVVQEVQEDKGTDITPLPTFDIMDSKQNTNYMYNDNEDYFDDLDDNEQFLNSKDLLYYDDGIDRTKRYELIPLQRYRYDPF

Each molecule was assayed against PvTRAg36.6-GFP fusion protein (P. vivax) (UniProt A5KCP8) (assay: affinity purification with mass spectrometry; co-immunoprecipitation with anti-GFP antibody (Crosslink-IP kit) from trophozoite and schizont stage transgenic P. falciparum 3D7 after streptolysin O treatment; eluates digested in solution and analysed by mass spectrometry).
“ETRAMP4 (P. falciparum) (from UniProt Q8IFM9)” was tested, and the binding was “binds”.
Pf332 (from UniProt Q8IHN4 1-6093) was tested, and the binding was “binds”.
With RON4 (from UniProt Q8IIK5) the binding was “binds”.
B1 was tested, and the binding was “binds”.

What follows are molecules tested against T1, PvTRAg56.2-GFP fusion protein (P. vivax) (UniProt A5K5F1) in the same assay as above.
T1 sequence: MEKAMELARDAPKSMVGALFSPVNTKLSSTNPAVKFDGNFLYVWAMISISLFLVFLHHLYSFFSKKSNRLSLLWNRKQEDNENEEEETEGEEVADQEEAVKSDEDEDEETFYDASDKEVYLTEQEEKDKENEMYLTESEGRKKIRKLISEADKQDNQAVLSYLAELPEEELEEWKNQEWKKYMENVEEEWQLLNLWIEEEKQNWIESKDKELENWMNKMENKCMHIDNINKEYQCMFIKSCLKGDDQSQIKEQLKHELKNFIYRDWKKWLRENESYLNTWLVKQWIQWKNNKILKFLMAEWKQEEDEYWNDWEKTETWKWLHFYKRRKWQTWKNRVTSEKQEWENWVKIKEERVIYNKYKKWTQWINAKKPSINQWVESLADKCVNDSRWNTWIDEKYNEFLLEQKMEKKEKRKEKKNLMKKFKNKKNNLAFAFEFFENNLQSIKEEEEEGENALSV
For “Glycophorin binding protein (GBP) (from UniProt Q8I6U8)”, the binding was “binds”.
“Merozoite surface protein 7 (MSP7) of P. falciparum (from UniProt Q8IDX8)” was tested, and the binding was “binds”.
In the case of “Merozoite surface protein 9 (MSP9) (from UniProt Q8I5D2)”, the binding is reported as “binds”.
